The effect of the compound repeats well; differences between the knockouts mostly do not.
How the values were obtained:
Experiment in all cases: relative cell number vs DMSO control (72 h) (% of DMSO); higher = less growth inhibition (more cells)
MDA-MB-231 = test system: MDA-MB-231
Procedure: (§1)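 QMAP-Seq: a pool of 5 breast cancer cell lines (ZR-75-1, SKBR3, HCC-38, MDA-MB-231, BT-20), each carrying 12 doxycycline-inducible Cas9 sgRNA perturbations (11 knockouts plus non-targeting sgNT), was treated with compounds for 72 h at four 10-fold doses (10 nM-10 uM or 1 nM-1 uM range). Barcodes were amplified and sequenced, and cell number was interpolated from 293T spike-in standard curves. The result is expressed as % of the median of DMSO wells. Two biological replicates.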

SKBR3 = test system: SKBR3
Procedure: as §1

ZR-75-1 = test system: ZR-75-1
Procedure: as §1

CN(C)C/C=C/C(=O)Nc1cc2c(Nc3ccc(F)c(Cl)c3)ncnc2cc1O[C@H]1CCOC1 [Afatinib]
relative cell number
Settings | MDA-MB-231 | SKBR3 | ZR-75-1
sgRNA knockout: sgATF3, 10 nM | 112 | 84 | 111
sgRNA knockout: sgATF3, 100 nM | 93.1 | 41.4 | 69.6
sgRNA knockout: sgATF3, 1000 nM | 94.5 | 23.4 | 77.3
sgRNA knockout: sgATF3, 10000 nM | 11.1 | 13 | 14.6
sgRNA knockout: sgATF4, 10 nM | 114 | 81.6 | 126
sgRNA knockout: sgATF4, 100 nM | 109 | 37.8 | 82.4
sgRNA knockout: sgATF4, 1000 nM | 80.14 | 28.2 | 106
sgRNA knockout: sgATF4, 10000 nM | 14.6 | 12.8 | 12.5
sgRNA knockout: sgATF6, 10 nM | 106.7 | 85.3 | 96.3
sgRNA knockout: sgATF6, 100 nM | 80.09 | 29.4 | 64.87
sgRNA knockout: sgATF6, 1000 nM | 78.4 | 29.7 | 69.7
sgRNA knockout: sgATF6, 10000 nM | 9.87 | 10.4 | 15.3
sgRNA knockout: sgATG7, 10 nM | 107 | 89 | 103
sgRNA knockout: sgATG7, 100 nM | 76.1 | 40.3 | 105
sgRNA knockout: sgATG7, 1000 nM | 67.4 | 20.6 | 57.5
sgRNA knockout: sgATG7, 10000 nM | 10.7 | 13.4 | 12.4
sgRNA knockout: sgERN1, 10 nM | 112 | 72.6 | 104
sgRNA knockout: sgERN1, 100 nM | 74.5 | 37.6 | 81.6
sgRNA knockout: sgERN1, 1000 nM | 77.7 | 23.1 | 60.5
sgRNA knockout: sgERN1, 10000 nM | 11.9 | 13.1 | 9.52
sgRNA knockout: sgHSF1, 10 nM | 102 | 84.4 | –
sgRNA knockout: sgHSF1, 100 nM | 75.9 | 35.6 | –
sgRNA knockout: sgHSF1, 1000 nM | 66.5 | 22.7 | –
sgRNA knockout: sgHSF1, 10000 nM | 7.97 | 11.9 | –
sgRNA knockout: sgHSF2, 10 nM | 108 | 74.9 | 104
sgRNA knockout: sgHSF2, 100 nM | 107 | 31.9 | 96.9
sgRNA knockout: sgHSF2, 1000 nM | 73.2 | 28.5 | 66.9
sgRNA knockout: sgHSF2, 10000 nM | 11.3 | 11 | 10.2
sgRNA knockout: sgKEAP1, 10 nM | 128 | 88.2 | –
sgRNA knockout: sgKEAP1, 100 nM | 77.2 | 29.4 | –
sgRNA knockout: sgKEAP1, 1000 nM | 59.2 | 27.8 | –
sgRNA knockout: sgKEAP1, 10000 nM | 11.1 | 13.7 | –
sgRNA knockout: sgNFE2L2, 10 nM | 94.3 | 88.7 | 103
sgRNA knockout: sgNFE2L2, 100 nM | 78.6 | 35.9 | 93.7
sgRNA knockout: sgNFE2L2, 1000 nM | 72.1 | 23.9 | 79.1
sgRNA knockout: sgNFE2L2, 10000 nM | 6.98 | 10.4 | 13
sgRNA knockout: sgSLC35F2, 10 nM | 94.8 | 82.8 | 142
sgRNA knockout: sgSLC35F2, 100 nM | 68.6 | 32.3 | 74.5
sgRNA knockout: sgSLC35F2, 1000 nM | 67.7 | 29.2 | 62.5
sgRNA knockout: sgSLC35F2, 10000 nM | 12.1 | 8.28 | 20.6
sgRNA knockout: sgXBP1, 10 nM | 93.2 | 104 | 95.5
sgRNA knockout: sgXBP1, 100 nM | 78.8 | 34.1 | 83.8
sgRNA knockout: sgXBP1, 1000 nM | 80.9 | 23.5 | 65.9
sgRNA knockout: sgXBP1, 10000 nM | 13.3 | 12.6 | 10.6

COc1cc(Nc2ncc3c(n2)-c2ccc(Cl)cc2C(c2c(F)cccc2OC)=NC3)ccc1C(=O)O [Alisertib]
relative cell number
Settings | MDA-MB-231 | SKBR3 | ZR-75-1
sgRNA knockout: sgATF3, 10 nM | 98.7 | 120 | 92.9
sgRNA knockout: sgATF3, 100 nM | 70.4 | 79.4 | 42.8
sgRNA knockout: sgATF3, 1000 nM | 69.4 | 85.4 | 65.4
sgRNA knockout: sgATF3, 10000 nM | 44.8 | 89.6 | 64.2
sgRNA knockout: sgATF4, 10 nM | 94.1 | 116 | 102
sgRNA knockout: sgATF4, 100 nM | 82.4 | 71.96 | 47.7
sgRNA knockout: sgATF4, 1000 nM | 72.3 | 86.3 | 69
sgRNA knockout: sgATF4, 10000 nM | 42.7 | 69.5 | 61.3
sgRNA knockout: sgATF6, 10 nM | 71.5 | 105 | 99.3
sgRNA knockout: sgATF6, 100 nM | 55.5 | 90.6 | 26.7
sgRNA knockout: sgATF6, 1000 nM | 65.7 | 89.3 | 57.4
sgRNA knockout: sgATF6, 10000 nM | 42.201 | 72.1 | 46.2
sgRNA knockout: sgATG7, 10 nM | 93.904 | 94 | 89.7
sgRNA knockout: sgATG7, 100 nM | 77.4 | 64.6 | 35.7
sgRNA knockout: sgATG7, 1000 nM | 51.7 | 102.95 | 57.8
sgRNA knockout: sgATG7, 10000 nM | 45.8 | 70.1 | 37.7
sgRNA knockout: sgERN1, 10 nM | 109 | 138.4 | 84.86
sgRNA knockout: sgERN1, 100 nM | 57.3 | 75.3 | 46.6
sgRNA knockout: sgERN1, 1000 nM | 62.8 | 88.1 | 51.9
sgRNA knockout: sgERN1, 10000 nM | 44.4 | 78.5 | 39.8
sgRNA knockout: sgHSF1, 10 nM | 116 | 94.8 | –
sgRNA knockout: sgHSF1, 100 nM | 68.8 | 84.45 | –
sgRNA knockout: sgHSF1, 1000 nM | 66.5 | 77.4 | –
sgRNA knockout: sgHSF1, 10000 nM | 41.9 | 78.5 | –
sgRNA knockout: sgHSF2, 10 nM | 81.8 | 107 | 97.1
sgRNA knockout: sgHSF2, 100 nM | 82.5 | 69.9 | 51.1
sgRNA knockout: sgHSF2, 1000 nM | 76.3 | 88.4 | 45.4
sgRNA knockout: sgHSF2, 10000 nM | 46 | 66 | 51.7
sgRNA knockout: sgKEAP1, 10 nM | 87 | 102 | –
sgRNA knockout: sgKEAP1, 100 nM | 70.6 | 72.7 | –
sgRNA knockout: sgKEAP1, 1000 nM | 58.7 | 76.6 | –
sgRNA knockout: sgKEAP1, 10000 nM | 46 | 73.3 | –
sgRNA knockout: sgNFE2L2, 10 nM | 101 | 91.4 | 95.1
sgRNA knockout: sgNFE2L2, 100 nM | 56.9 | 76.5 | 39.2
sgRNA knockout: sgNFE2L2, 1000 nM | 61.4 | 75 | 39.2
sgRNA knockout: sgNFE2L2, 10000 nM | 43.9 | 69.3 | 54.5
sgRNA knockout: sgSLC35F2, 10 nM | 88.8 | 110 | 93
sgRNA knockout: sgSLC35F2, 100 nM | 63.7 | 78 | 31
sgRNA knockout: sgSLC35F2, 1000 nM | 81.1 | 90.6 | 51
sgRNA knockout: sgSLC35F2, 10000 nM | 43.3 | 72.9 | 59.3
sgRNA knockout: sgXBP1, 10 nM | 91.75 | 121 | 90.8
sgRNA knockout: sgXBP1, 100 nM | 81.6 | 70.3 | 36.1
sgRNA knockout: sgXBP1, 1000 nM | 62.2 | 102 | 37.8
sgRNA knockout: sgXBP1, 10000 nM | 38.4 | 79.714 | 51.3

CCN1CCN(c2ccc(Nc3cc(N(C)C(=O)Nc4c(Cl)c(OC)cc(OC)c4Cl)ncn3)cc2)CC1 [BGJ398]
relative cell number
Settings | MDA-MB-231 | SKBR3 | ZR-75-1
sgRNA knockout: sgATF3, 10 nM | 120 | 82.7 | 112
sgRNA knockout: sgATF3, 100 nM | 95.6 | 85.5 | 90.2
sgRNA knockout: sgATF3, 1000 nM | 106 | 93.1 | 92.2
sgRNA knockout: sgATF3, 10000 nM | 74.5 | 78 | 71
sgRNA knockout: sgATF4, 10 nM | 95.2 | 97.3 | 76.2
sgRNA knockout: sgATF4, 100 nM | 113 | 90 | 106
sgRNA knockout: sgATF4, 1000 nM | 81.1 | 88.4 | 76.2
sgRNA knockout: sgATF4, 10000 nM | 80.9 | 72.6 | 82.5
sgRNA knockout: sgATF6, 10 nM | 96.8 | 81.6 | 46.2
sgRNA knockout: sgATF6, 100 nM | 73.6 | 88.4 | 112
sgRNA knockout: sgATF6, 1000 nM | 66.7 | 86.9 | 47.2
sgRNA knockout: sgATF6, 10000 nM | 65 | 59.6 | 69.8
sgRNA knockout: sgATG7, 10 nM | 96.2 | 76.7 | 110
sgRNA knockout: sgATG7, 100 nM | 102 | 95.8 | 97.5
sgRNA knockout: sgATG7, 1000 nM | 82.8 | 77.2 | 64.1
sgRNA knockout: sgATG7, 10000 nM | 88.5 | 79.41 | 80.9
sgRNA knockout: sgERN1, 10 nM | 101 | 79.8 | 102
sgRNA knockout: sgERN1, 100 nM | 103 | 108 | 118
sgRNA knockout: sgERN1, 1000 nM | 66.1 | 94.2 | 110
sgRNA knockout: sgERN1, 10000 nM | 87.9 | 62 | 81
sgRNA knockout: sgHSF1, 10 nM | 94.6 | 83.5 | –
sgRNA knockout: sgHSF1, 100 nM | 89.8 | 100 | –
sgRNA knockout: sgHSF1, 1000 nM | 79 | 83.8 | –
sgRNA knockout: sgHSF1, 10000 nM | 74.9 | 71.3 | –
sgRNA knockout: sgHSF2, 10 nM | 110 | 91.5 | 118
sgRNA knockout: sgHSF2, 100 nM | 101 | 107 | 95
sgRNA knockout: sgHSF2, 1000 nM | 90.1 | 83.4 | 78.4
sgRNA knockout: sgHSF2, 10000 nM | 78.4 | 70.3 | 90.4
sgRNA knockout: sgKEAP1, 10 nM | 111 | 111 | –
sgRNA knockout: sgKEAP1, 100 nM | 93.2 | 102 | –
sgRNA knockout: sgKEAP1, 1000 nM | 84.6 | 67.3 | –
sgRNA knockout: sgKEAP1, 10000 nM | 91.5 | 69.3 | –
sgRNA knockout: sgNFE2L2, 10 nM | 88.8 | 86.4 | 107
sgRNA knockout: sgNFE2L2, 100 nM | 98.1 | 86.5 | 102
sgRNA knockout: sgNFE2L2, 1000 nM | 80.12 | 65.9 | 70.1
sgRNA knockout: sgNFE2L2, 10000 nM | 77.4 | 73 | 64.1
sgRNA knockout: sgSLC35F2, 10 nM | 91.6 | 106 | 59.2
sgRNA knockout: sgSLC35F2, 100 nM | 102 | 96.4 | 81.1
sgRNA knockout: sgSLC35F2, 1000 nM | 97.4 | 68.8 | 68.64
sgRNA knockout: sgSLC35F2, 10000 nM | 52.5 | 70.7 | 74.9
sgRNA knockout: sgXBP1, 10 nM | 69.8 | 94.6 | 97.1
sgRNA knockout: sgXBP1, 100 nM | 90.3 | 102 | 80.4
sgRNA knockout: sgXBP1, 1000 nM | 80.8 | 79.1 | 69.48
sgRNA knockout: sgXBP1, 10000 nM | 73.5 | 76.9 | 71.4

From the supplement of paper PMC7661543
